Measurements taken from paper PMC9369335 (International Journal of Molecular Sciences, 2022).
Strings that start with PEPTIDE1 are HELM notation: dots part the residues, brackets hold end groups and non-standard residues. The same purity stands for every peptide and may come from a single statement.

Test: general procedure: Fmoc solid-phase peptide synthesis; Rink-amide-aminomethyl polystyrene (AM-PS) resin; HBTU/HOBt, DIEA
Settings: whole synthesis

Substance | final HPLC purity | isolated yield
PEPTIDE1{[FITC].[Ahx].[Dab(T)].R.[Dab(T)].R.[Dab(T)].R.[Dab(T)].R.[Dab(T)].R.[Dab(T)].R.[am]}$$$$V2.0 | ≥ 95% | 60%
PEPTIDE1{[ac].[Dab(T)].R.[Dab(T)].R.[Dab(T)].R.[Dab(T)].R.[Dab(T)].R.[Dab(T)].R.[am]}$$$$V2.0 | ≥ 95% | 71%
PEPTIDE1{[ac].[Dap(T)].R.[Dap(T)].R.[Dap(T)].R.[Dap(T)].R.[Dap(T)].R.[Dap(T)].R.[am]}$$$$V2.0 | ≥ 95% | 69%
PEPTIDE1{[ac].[Lys(T)].D.[Lys(T)].D.[Lys(T)].D.[Lys(T)].D.[Lys(T)].D.[Lys(T)].D.[am]}$$$$V2.0 | ≥ 95% | 56%
PEPTIDE1{[ac].[Lys(T)].E.[Lys(T)].E.[Lys(T)].E.[Lys(T)].E.[Lys(T)].E.[Lys(T)].E.[am]}$$$$V2.0 | ≥ 95% | 61%
PEPTIDE1{[ac].[Lys(T)].H.[Lys(T)].H.[Lys(T)].H.[Lys(T)].H.[Lys(T)].H.[Lys(T)].H.[am]}$$$$V2.0 | ≥ 95% | 68%
PEPTIDE1{[ac].[Lys(T)].K.[Lys(T)].K.[Lys(T)].K.[Lys(T)].K.[Lys(T)].K.[Lys(T)].K.[am]}$$$$V2.0 | ≥ 95% | 72%
PEPTIDE1{[ac].[Lys(T)].R.[Lys(T)].R.[Lys(T)].R.[Lys(T)].R.[Lys(T)].R.[Lys(T)].R.[am]}$$$$V2.0 | ≥ 95% | 79%
PEPTIDE1{[ac].[Orn(T)].R.[Orn(T)].R.[Orn(T)].R.[Orn(T)].R.[Orn(T)].R.[Orn(T)].R.[am]}$$$$V2.0 | ≥ 95% | 77%
